In PubChem BioAssay AID540276 (National Center for Advancing Translational Sciences (NCATS), 2011):
About 5,400 (1.8%) of roughly 300,000 compounds were called active. This list was built around the results that the source calls inconclusive (neither active nor inactive); the mix of calls is not that of the screen. The call rests on the fitted dose curve; tested in HEK293 cells. Where the call is inconclusive, the potency comes from a doubtful curve fit.

Experiment: qHTS for inhibitors of binding or entry into cells for Marburg Virus
Conditions: Marburg virus pseudotyped entry inhibition, cell reporter; activity change, negative = inhibition: at 37.8 µM (top of the series) unless noted
On the % scale 0 is the no-effect control and ±100 the full control effect; potency means the concentration at half of the fitted maximal effect.

Compound	Potency	activity change, negative = inhibition
Cc1ccc(C(=O)Nc2ccc(N3CCN(C)CC3)cc2)c(Cl)c1	inconclusive: 2 µM [activator, partial curve, poor fit]	–
COc1ccccc1OCCNC(=O)c1ccc2c(c1)CCC2	inconclusive: 7.08 µM [inhibitor, full curve, poor fit]	–
CC(C)n1nccc1N(Cc1ccc(Cl)cc1)S(=O)(=O)c1ccccc1	inconclusive: 1.41 µM [inhibitor, partial curve, poor fit]	–
COCCCNC(=O)c1ccc(-n2nc(C(F)(F)F)cc2-c2cccs2)cc1	–	inactive: -0.368%
O=C(NCCc1ccncc1)Nc1ccc(Cl)cc1	inconclusive: 2.06 µM [inhibitor, partial curve, poor fit]	–
Cc1cccc(N(CC(=O)NCc2ccccc2)C(=O)Cn2nnc(-c3ccc(C)o3)n2)c1	inconclusive: 29.1 µM [inhibitor, single point]	–
Cc1c(Cl)cccc1NC(=O)c1ccc2snnc2c1	inconclusive: 3.16 µM [inhibitor, partial curve, poor fit]	–
CN1C2CCC1CC(OC(=O)CCN1CCCC1)C2 (centres undefined)	–	inactive: -24%
COc1ccc(-c2c3c(=O)n(C)c(=O)n(C)c3cn2C2CCCCC2)cc1	inconclusive: 29.1 µM [inhibitor, single point]	–
CCN(Cc1ccccc1)S(=O)(=O)c1cc(C(=O)NC2CCCCCC2)ccc1OC	inconclusive: 28.2 µM [inhibitor, single point]	–
COC(=O)c1ccccc1NC(=O)c1ccc(-c2ccc(Br)cc2)o1	–	inactive: 0%
Oc1ccc(NCc2ccccc2OCc2ccccc2F)cc1	inactive	–
CC(/C=N/NC(=O)c1cc(-c2ccc(C)s2)[nH]n1)=C\c1ccccc1	inconclusive: 3.16 µM [inhibitor, single point]	–
Cc1ccc(OCCCCn2cnc3ccccc32)c(C)c1	inconclusive: 0.82 µM [inhibitor, full curve, poor fit]	–
Cc1ccc(CNC(=O)CN2C(=O)NC(C)(c3ccc(Cl)cc3)C2=O)cc1 (centres undefined)	inconclusive: 35.5 µM [inhibitor, partial curve, poor fit]	–
CSCc1nc2sc(C(=O)Nc3nc(C)cs3)c(C)c2c(=O)[nH]1	inconclusive: 1 µM [activator, full curve, poor fit]	–
CCOc1ccc(CCNC(=O)COC(=O)COc2ccc(C(C)=O)cc2)cc1OCC	–	inactive: -4.59%
CN(CC(=O)NCc1cccs1)CC(=O)Nc1ccc(F)c(F)c1F	–	inactive: 19.5%
CCn1nc(C)c(C(=O)Nc2cc(Oc3ccc(Cl)cc3)cc([N+](=O)[O-])c2)c1C	inconclusive: 29.1 µM [inhibitor, single point]	–
CN(CC(=O)Nc1ccc(Cl)cc1)C(=O)CNC(=O)c1ccc2ccccc2c1	inconclusive: 1 µM [activator, single point]	–
Cc1ccc(C(=O)Nc2ccccc2C(=O)NCc2ccccc2)cc1	–	inactive: -18.8%
N/C(=N\OC(=O)COc1ccc2ccccc2c1)c1cccnc1	inconclusive: 2.51 µM [activator, full curve, poor fit]	–
CCOC(=O)C1=C(COC(=O)CCCOc2ccccc2)NC(=O)NC1C (centres undefined)	–	inactive: 1.88%
O=C(CCC(=O)N(CC(=O)NC1CCCCC1)Cc1ccccc1)Nc1ccccn1	inconclusive: 6.31 µM [inhibitor, single point]	–
Nc1nc(-c2nc3ccccc3[nH]2)cs1	–	inactive: -26%

Compound	Potency	activity change, negative = inhibition
COc1ccc2cc(OC)c(C(=O)N3CCOCC3)cc2c1	–	inactive: 2.1% [at 46.1 µM]
COc1cccc(OC)c1C(=O)Nc1cccc(-c2nc3ccccc3[nH]2)c1	–	inactive: -5.47% [at 46.1 µM]
CC1CCCCN1S(=O)(=O)c1ccc(C(=O)Nc2nnc(-c3cccs3)o2)cc1 (centres undefined)	inconclusive: 14.1 µM [inhibitor, partial curve, poor fit]	–
COc1ccc(CN(CCC#N)CCC2(c3ccccc3)CC(C)N(C)CC2C)cc1OC (centres undefined)	active: 12.6 µM	–
COC(=O)C1=C(NC(=O)C2CCCCC2)CCS1	–	inactive: 8.23%
CC1Cc2ccccc2N1C(=O)CSc1nnc(-c2ccccc2Cl)o1 (centres undefined)	–	inactive: 6.36% [at 46.1 µM]
COc1cc(-c2nc3ccccn3c2NCC2CCCO2)ccc1O (centres undefined)	–	inactive: 4.63%
Oc1ccc(Nc2ncnc3scc(-c4ccccc4)c23)cc1	inconclusive: 4.47 µM [inhibitor, full curve]	–
Cn1c(=O)c2c(ncn2CCOc2ccc(F)cc2)n(C)c1=O	inconclusive: 14.1 µM [inhibitor, single point]	–
O=C(Nc1ccc(Cl)cc1)N1CC2CC(C1)c1cccc(=O)n1C2 (centres undefined)	inconclusive: 5.62 µM [activator, partial curve, poor fit]	–
CCc1ccc2oc(C(=O)Nc3cc(C)ccc3C)cc(=O)c2c1	inconclusive: 7.08 µM [activator, partial curve, poor fit]	–
Cc1ccc2nc(N3C(=O)CNC3=S)sc2c1	inconclusive: 35.5 µM [inhibitor, single point]	–
CCn1c(C)[n+](CC)c2ccc(C(=O)N(C)c3ccccc3)cc21	inconclusive: 2.91 µM [activator, partial curve, poor fit]	–
O=C(NC1CCCC1)C1CCN(S(=O)(=O)c2ccccc2)CC1	–	inactive: -7.65% [at 46.1 µM]
O=C(COc1ccc(S(=O)(=O)NC2CCCCC2)cc1Cl)NCc1ccc2c(c1)OCO2	inconclusive: 23.1 µM [inhibitor, partial curve, poor fit]	–
CC(=O)c1ccc(Nc2cc(C)nc3nc(Cc4ccc(Cl)cc4)nn23)cc1	–	inactive: -8.38% [at 46.1 µM]
O=C(CC1NCCc2ccccc21)Nc1cccc(Cl)c1 (centres undefined)	inconclusive: 17.8 µM [inhibitor, single point]	–
c1ccc(CCN(Cc2ccccc2)Cc2nc(C3CC3)no2)cc1	inconclusive: 1.12 µM [inhibitor, full curve]	–
O=C(CN1C(=O)CCC1=O)Nc1ccc2c3c(cccc13)CC2	inconclusive: 6.31 µM [inhibitor, single point]	–
CC1Nc2ccccc2C(=O)N1NS(=O)(=O)c1ccccc1 (centres undefined)	inconclusive: 0.794 µM [inhibitor, single point]	–
COc1ccc(CCNC(=O)COC(=O)C2CC2C)cc1 (centres undefined)	inconclusive: 11.2 µM [inhibitor, partial curve]	–
COc1ccccc1-c1noc(CCC(=O)Nc2ccc(C)cc2C)n1	–	inactive: 2.92% [at 46.1 µM]
O=C(CCC(=O)NNc1nc2ccccc2c2nc(-c3ccccc3)nn12)NCCCN1CCOCC1	–	inactive: -17.6%
COC(=O)c1cncn1C(C)c1ccccc1 (centres undefined)	–	inactive: 8.15%
O=[N+]([O-])c1cccc(C=NNc2ccc3ccccc3n2)c1O	active: 2.24 µM	–

Compound	Potency	activity change, negative = inhibition
COc1ccc(CNCCc2c[nH]c3ccccc23)c(OC)c1C	inconclusive: 5.62 µM [inhibitor, single point]	–
CC(=O)C1C(C)CC2C3CCC4CC(=O)CCC4(C)C3CCC21C (centres undefined)	–	inactive: 1.03% [at 46.1 µM]
O=C(Nc1cccc(-c2cn3ccsc3n2)c1)c1ccccc1	–	inactive: 26.2%
Cc1c(Cl)cccc1NC(=O)CN1CCC(C(O)(c2ccccc2)c2ccccc2)CC1	inconclusive: 23.1 µM [inhibitor, partial curve, poor fit]	–
Cc1cc(C)nc(N/N=C/c2ccccc2)n1	–	inactive: 16.8%
COc1cccc(CNC(=O)c2cc3oc4ccccc4c3n2C)c1OC	inconclusive: 4.47 µM [inhibitor, full curve, poor fit]	–
CCOC(=O)c1ccc(S(=O)(=O)n2c(CN3CCCCC3)nc3ccccc32)cc1	inconclusive: 29.1 µM [inhibitor, single point]	–
CCOc1ccccc1N(CC(=O)NC1CCCCC1)C(=O)CCC(=O)Nc1nccs1	–	inactive: -6.22% [at 46.1 µM]
CCOC(=O)CCCCC(=O)c1[nH]c(=O)[nH]c1CSc1nc2ccccc2[nH]1	–	inactive: 19.1%
COc1cc(OC)c(NC(=O)CCc2c(C)nc3cc(-c4ccccc4OC)nn3c2C)cc1Cl	inconclusive: 3.16 µM [activator, single point]	–
O=C(NC1CCCCC1)N1CCNCC1	–	inactive: -1.95%
O=C(Nc1ccc2c(c1)OCO2)c1ccc2c(c1)OCO2	inconclusive: 0.251 µM [activator, full curve, poor fit]	–
O=C(COc1ccc(-c2nnco2)cc1)Nc1c(F)cccc1F	–	inactive: -12.2% [at 46.1 µM]
Cc1ccc(S(=O)(=O)N2CC3CCCN3c3ccc(C(F)(F)F)cc32)cc1 (centres undefined)	inconclusive: 7.3 µM [inhibitor, partial curve]	–
Cc1cc(C)n(-c2cc(C(C)(C)C)nc3c(-c4ccc(Cl)cc4)cnn23)n1	inconclusive: 16.4 µM [inhibitor, single point]	–
Cc1cc2oc(C(=O)Nc3ccc(S(=O)(=O)Nc4ncccn4)cc3)cc(=O)c2cc1C	–	inactive: -1.2% [at 46.1 µM]
CCOC(=O)N1CCN([C@@H]2OC(=O)c3ccccc32)CC1	–	inactive: 23.5% [at 46.1 µM]
N#CCCS(=O)(=O)c1ccc(N)cc1	–	inactive: 10.5%
O=C(NCCOc1ccccc1F)C1CC(=O)N(Cc2ccccc2)C1 (centres undefined)	inconclusive: 0.708 µM [activator, full curve, poor fit]	–
COC(=O)C1=CN(c2ccc(Cl)cc2)C=C(C(=O)OC)C1c1ccc([N+](=O)[O-])cc1	inconclusive: 20 µM [inhibitor, partial curve, poor fit]	–
C/C(=N\NC(=O)c1ccccc1NC(=O)c1ccc(Cl)cc1)c1ccncc1	inconclusive: 0.891 µM [inhibitor, full curve, poor fit]	–
CCOc1ccc(-c2cc(C(=O)Nc3ccc(NC(C)=O)cc3)no2)cc1	–	inactive: 7.64% [at 46.1 µM]
CC(=O)[C@H]1CC[C@H]2[C@@H]3CCC4=CC(=O)CC[C@]4(C)[C@H]3[C@H](O)C[C@]12C	–	inactive: -2.06%
C=CCN(CC=C)S(=O)(=O)c1ccc2nc(NC(=O)C(C)C)sc2c1	inconclusive: 0.141 µM [inhibitor, full curve, poor fit]	–

Entries of single compounds from above. Order of values: Potency	activity change, negative = inhibition
`C=CCN(CC=C)S(=O)(=O)c1ccc2nc(NC(=O)C(C)C)sc2c1` in the list: inconclusive: 0.141 µM [inhibitor, full curve, poor fit]	–
`CCOc1ccc(-c2cc(C(=O)Nc3ccc(NC(C)=O)cc3)no2)cc1` in the list: –	inactive: 7.64% [at 46.1 µM]
`N#CCCS(=O)(=O)c1ccc(N)cc1` in the list: –	inactive: 10.5%
